{"sequences": {"note": "The chains behind the UniProt entries cited, without tags or fusion partners. Where a name states a change or a piece, a line headed by the entry shows the natural chain unless it says otherwise.", "UniProt P41145": "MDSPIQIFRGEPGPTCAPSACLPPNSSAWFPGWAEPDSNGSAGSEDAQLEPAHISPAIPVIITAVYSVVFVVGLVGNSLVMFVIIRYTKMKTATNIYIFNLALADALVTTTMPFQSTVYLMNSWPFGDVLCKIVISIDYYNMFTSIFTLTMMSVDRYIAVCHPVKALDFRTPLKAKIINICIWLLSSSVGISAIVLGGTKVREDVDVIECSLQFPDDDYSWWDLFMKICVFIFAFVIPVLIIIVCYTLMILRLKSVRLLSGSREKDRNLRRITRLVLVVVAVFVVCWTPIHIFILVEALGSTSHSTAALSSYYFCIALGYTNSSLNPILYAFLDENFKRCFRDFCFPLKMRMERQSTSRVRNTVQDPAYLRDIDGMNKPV"}, "source": "ChEMBL document CHEMBL5727812", "about": "“Kappa opioid receptor antagonists and products and methods related thereto” (2020)", "target": "Kappa-type opioid receptor (Homo sapiens, UniProt P41145)", "data": [{"smiles": "Cc1nc(-c2c(N3CCC(NC4CCOCC4)CC3)nc3c(C#N)cc(OC(F)(F)F)cc3c2C)no1", "values": [{"measurement": "IC50", "result": "> 100", "unit": "nM"}]}]}
